From paper PMC4066765, “Insights into how Spt5 functions in transcription elongation and repressing transcription coupled DNA repair” (Nucleic Acids Research, 2014)
These are yes or no findings as the source states them, for the method shown. Binding seen in cells or lysates may run through a third protein. Some entries that bind do so weakly or less than the wild type. Where a sequence is shown, tags or fusion partners need not be part of it.

Amino acid sequences for entries named in this document (tags omitted).
UniProt P04050: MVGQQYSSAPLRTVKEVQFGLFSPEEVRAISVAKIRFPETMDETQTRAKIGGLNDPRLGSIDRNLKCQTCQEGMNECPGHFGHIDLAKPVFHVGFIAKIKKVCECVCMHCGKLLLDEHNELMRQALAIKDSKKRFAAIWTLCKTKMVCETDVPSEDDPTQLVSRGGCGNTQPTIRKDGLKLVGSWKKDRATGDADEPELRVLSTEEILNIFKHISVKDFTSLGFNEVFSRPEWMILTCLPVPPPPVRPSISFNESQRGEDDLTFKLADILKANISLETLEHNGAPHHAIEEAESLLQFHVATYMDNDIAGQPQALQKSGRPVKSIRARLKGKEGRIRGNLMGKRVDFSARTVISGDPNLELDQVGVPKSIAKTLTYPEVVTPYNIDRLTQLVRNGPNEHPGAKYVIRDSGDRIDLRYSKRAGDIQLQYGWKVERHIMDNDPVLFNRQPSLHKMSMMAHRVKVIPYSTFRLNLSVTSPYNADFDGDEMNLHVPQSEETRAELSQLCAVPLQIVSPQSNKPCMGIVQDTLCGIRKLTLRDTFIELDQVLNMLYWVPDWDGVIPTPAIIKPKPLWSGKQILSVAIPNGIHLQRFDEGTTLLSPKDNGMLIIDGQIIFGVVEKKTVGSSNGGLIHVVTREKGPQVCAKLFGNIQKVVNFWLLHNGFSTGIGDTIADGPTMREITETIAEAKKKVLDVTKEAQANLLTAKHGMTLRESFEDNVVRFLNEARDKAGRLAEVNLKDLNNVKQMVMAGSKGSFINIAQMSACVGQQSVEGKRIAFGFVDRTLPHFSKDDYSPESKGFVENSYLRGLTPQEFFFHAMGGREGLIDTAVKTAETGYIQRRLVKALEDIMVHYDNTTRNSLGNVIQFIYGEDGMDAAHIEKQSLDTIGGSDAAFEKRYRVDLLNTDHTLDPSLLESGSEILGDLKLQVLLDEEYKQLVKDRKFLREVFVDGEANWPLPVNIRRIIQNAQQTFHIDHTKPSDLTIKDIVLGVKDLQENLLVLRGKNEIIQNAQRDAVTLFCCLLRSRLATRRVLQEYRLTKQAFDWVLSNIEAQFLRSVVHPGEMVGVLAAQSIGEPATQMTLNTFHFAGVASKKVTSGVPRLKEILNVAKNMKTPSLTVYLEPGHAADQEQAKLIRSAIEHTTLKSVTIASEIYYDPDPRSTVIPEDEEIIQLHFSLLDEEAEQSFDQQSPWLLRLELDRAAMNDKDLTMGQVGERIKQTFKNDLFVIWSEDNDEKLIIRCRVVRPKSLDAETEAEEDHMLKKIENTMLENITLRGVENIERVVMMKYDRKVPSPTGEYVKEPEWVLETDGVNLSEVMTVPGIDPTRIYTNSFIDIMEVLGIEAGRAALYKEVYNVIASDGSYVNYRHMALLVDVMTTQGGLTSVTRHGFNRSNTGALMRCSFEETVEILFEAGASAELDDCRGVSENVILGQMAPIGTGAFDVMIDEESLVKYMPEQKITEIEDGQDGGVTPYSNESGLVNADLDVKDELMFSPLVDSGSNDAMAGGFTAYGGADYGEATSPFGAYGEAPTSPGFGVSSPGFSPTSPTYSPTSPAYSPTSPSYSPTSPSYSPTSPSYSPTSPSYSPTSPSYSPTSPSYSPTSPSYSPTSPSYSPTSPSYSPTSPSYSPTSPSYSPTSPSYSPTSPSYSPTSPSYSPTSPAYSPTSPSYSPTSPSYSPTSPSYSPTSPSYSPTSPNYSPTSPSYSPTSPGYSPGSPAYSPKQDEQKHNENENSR

biological target: Rpb1, largest subunit of RNA polymerase II (S. cerevisiae) (UniProt P04050); assay: co-IP; chromatin fraction of log phase yeast cells solubilised by sonication in 50 mM HEPES pH 7.5, 140 mM NaCl, 1% Triton X-100, 0.1% sodium deoxycholate, 1 mM EDTA, 0.1% SDS; immunoprecipitated with 4 μg anti-Rpb1 8WG16; blots with 8WG16, 2Y14 and anti-Myc; cells expressing full-length, KOW4-deleted or KOW4-5-deleted Spt5

binding | Binder
binds | 3×Myc-tagged Spt5 (full-length, wild type) (protein, UniProt P27692 1-1063) MSDNSDTNVSMQDHDQQFADPVVVPQSTDTKDENTSDKDTVDSGNVTTTESTERAESTSNIPPLDGEEKEAKSEPQQPEDNAETAATEQVSSSNGPATDDAQATLNTDSSEANEIVKKEEGSDERKRPREEDTKNSDGDTKDEGDNKDEDDDEDDDDDDDDEDDDDEAPTKRRRQERNRFLDIEAEVSDDEDEDEDEEDSELVREGFITHGDDEDDEASAPGARRDDRLHRQLDQDLNKTSEEDAQRLAKELRERYGRSSSKQYRAAAQDGYVPQRFLLPSVDTATIWGVRCRPGKEKELIRKLLKKKFNLDRAMGKKKLKILSIFQRDNYTGRIYIEAPKQSVIEKFCNGVPDIYISQKLLIPVQELPLLLKPNKSDDVALEEGSYVRIKRGIYKGDLAMVDQISENNLEVMLKIVPRLDYGKFDEIDPTTQQRKSRRPTFAHRAPPQLFNPTMALRLDQANLYKRDDRHFTYKNEDYIDGYLYKSFRIQHVETKNIQPTVEELARFGSKEGAVDLTSVSQSIKKAQAAKVTFQPGDRIEVLNGEQRGSKGIVTRTTKDIATIKLNGFTTPLEFPISTLRKIFEPGDHVTVINGEHQGDAGLVLMVEQGQVTFMSTQTSREVTITANNLSKSIDTTATSSEYALHDIVELSAKNVACIIQAGHDIFKVIDETGKVSTITKGSILSKINTARARVSSVDANGNEIKIGDTIVEKVGSRREGQVLYIQTQQIFVVSKKIVENAGVFVVNPSNVEAVASKDNMLSNKMDLSKMNPEIISKMGPPSSKTFQQPIQSRGGREVALGKTVRIRSAGYKGQLGIVKDVNGDKATVELHSKNKHITIDKHKLTYYNREGGEGITYDELVNRRGRVPQARMGPSYVSAPRNMATGGIAAGAAATSSGLSGGMTPGWSSFDGGKTPAVNAHGGSGGGGVSSWGGASTWGGQGNGGASAWGGAGGGASAWGGQGTGATSTWGGASAWGNKSSWGGASTWASGGESNGAMSTWGGTGDRSAYGGASTWGGNNNNKSTRDGGASAWGNQDDGNRSAWNNQGNKSNYGGNSTWGGH
binds | 3×Myc-tagged KOW4-deleted Spt5 (protein, UniProt P27692) MSDNSDTNVSMQDHDQQFADPVVVPQSTDTKDENTSDKDTVDSGNVTTTESTERAESTSNIPPLDGEEKEAKSEPQQPEDNAETAATEQVSSSNGPATDDAQATLNTDSSEANEIVKKEEGSDERKRPREEDTKNSDGDTKDEGDNKDEDDDEDDDDDDDDEDDDDEAPTKRRRQERNRFLDIEAEVSDDEDEDEDEEDSELVREGFITHGDDEDDEASAPGARRDDRLHRQLDQDLNKTSEEDAQRLAKELRERYGRSSSKQYRAAAQDGYVPQRFLLPSVDTATIWGVRCRPGKEKELIRKLLKKKFNLDRAMGKKKLKILSIFQRDNYTGRIYIEAPKQSVIEKFCNGVPDIYISQKLLIPVQELPLLLKPNKSDDVALEEGSYVRIKRGIYKGDLAMVDQISENNLEVMLKIVPRLDYGKFDEIDPTTQQRKSRRPTFAHRAPPQLFNPTMALRLDQANLYKRDDRHFTYKNEDYIDGYLYKSFRIQHVETKNIQPTVEELARFGSKEGAVDLTSVSQSIKKAQAAKVTFQPGDRIEVLNGEQRGSKGIVTRTTKDIATIKLNGFTTPLEFPISTLRKIFEPGDHVTVINGEHQGDAGLVLMVEQGQVTFMSTQTSREVTITANNLSKSIDTTATSSEYALHDIVELSAKNVACIIQAGHDIFKVIDETGKVSTITKGSILSKINTARARVSSVDANGNEIMDLSKMNPEIISKMGPPSSKTFQQPIQSRGGREVALGKTVRIRSAGYKGQLGIVKDVNGDKATVELHSKNKHITIDKHKLTYYNREGGEGITYDELVNRRGRVPQARMGPSYVSAPRNMATGGIAAGAAATSSGLSGGMTPGWSSFDGGKTPAVNAHGGSGGGGVSSWGGASTWGGQGNGGASAWGGAGGGASAWGGQGTGATSTWGGASAWGNKSSWGGASTWASGGESNGAMSTWGGTGDRSAYGGASTWGGNNNNKSTRDGGASAWGNQDDGNRSAWNNQGNKSNYGGNSTWGGH
binds | 3×Myc-tagged KOW4-5-deleted Spt5 (protein, UniProt P27692) MSDNSDTNVSMQDHDQQFADPVVVPQSTDTKDENTSDKDTVDSGNVTTTESTERAESTSNIPPLDGEEKEAKSEPQQPEDNAETAATEQVSSSNGPATDDAQATLNTDSSEANEIVKKEEGSDERKRPREEDTKNSDGDTKDEGDNKDEDDDEDDDDDDDDEDDDDEAPTKRRRQERNRFLDIEAEVSDDEDEDEDEEDSELVREGFITHGDDEDDEASAPGARRDDRLHRQLDQDLNKTSEEDAQRLAKELRERYGRSSSKQYRAAAQDGYVPQRFLLPSVDTATIWGVRCRPGKEKELIRKLLKKKFNLDRAMGKKKLKILSIFQRDNYTGRIYIEAPKQSVIEKFCNGVPDIYISQKLLIPVQELPLLLKPNKSDDVALEEGSYVRIKRGIYKGDLAMVDQISENNLEVMLKIVPRLDYGKFDEIDPTTQQRKSRRPTFAHRAPPQLFNPTMALRLDQANLYKRDDRHFTYKNEDYIDGYLYKSFRIQHVETKNIQPTVEELARFGSKEGAVDLTSVSQSIKKAQAAKVTFQPGDRIEVLNGEQRGSKGIVTRTTKDIATIKLNGFTTPLEFPISTLRKIFEPGDHVTVINGEHQGDAGLVLMVEQGQVTFMSTQTSREVTITANNLSKSIDTTATSSEYALHDIVELSAKNVACIIQAGHDIFKVIDETGKVSTITKGSILSKINTARARVSSVDANGNEINREGGEGITYDELVNRRGRVPQARMGPSYVSAPRNMATGGIAAGAAATSSGLSGGMTPGWSSFDGGKTPAVNAHGGSGGGGVSSWGGASTWGGQGNGGASAWGGAGGGASAWGGQGTGATSTWGGASAWGNKSSWGGASTWASGGESNGAMSTWGGTGDRSAYGGASTWGGNNNNKSTRDGGASAWGNQDDGNRSAWNNQGNKSNYGGNSTWGGH
